The text below walks through data of publication PMC7862700.

The other results are listed elsewhere or left out. The source does not settle which construct or isoform was used.

The target in the test is T1, ELF2 (UniProt Q15723).
T1 sequence: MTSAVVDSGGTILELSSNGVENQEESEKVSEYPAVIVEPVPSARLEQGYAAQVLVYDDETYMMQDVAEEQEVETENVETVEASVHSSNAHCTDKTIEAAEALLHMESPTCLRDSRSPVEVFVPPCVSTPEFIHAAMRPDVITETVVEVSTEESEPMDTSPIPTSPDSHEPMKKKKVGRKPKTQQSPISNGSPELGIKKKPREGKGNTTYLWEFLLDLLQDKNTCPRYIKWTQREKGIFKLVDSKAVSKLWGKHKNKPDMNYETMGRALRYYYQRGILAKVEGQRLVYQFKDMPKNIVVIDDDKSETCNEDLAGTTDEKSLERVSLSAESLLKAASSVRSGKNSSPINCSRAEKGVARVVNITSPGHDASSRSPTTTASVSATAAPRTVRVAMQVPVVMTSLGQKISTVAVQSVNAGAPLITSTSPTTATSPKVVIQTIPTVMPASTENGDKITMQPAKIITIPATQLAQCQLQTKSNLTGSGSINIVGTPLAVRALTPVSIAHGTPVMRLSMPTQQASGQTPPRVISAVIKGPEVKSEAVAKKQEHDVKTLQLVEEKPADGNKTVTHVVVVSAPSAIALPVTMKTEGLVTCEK
The test is described as follows: DAPPL (digital affinity profiling via proximity ligation, sequencing). To be noted: 10 mM Tris-HCl pH 7.5, 50 mM NaCl, 1 mM DTT, 4% glycerol, room temperature, 30 min; GST-TFs on glutathione beads, 16-mer random dsDNA library, 0.1% …; high values mean tight binding; double strand, one strand shown; scale: fold enrichment (6-mer frequency, TF over GST control).
For CATCGA, the binding signal came out at 1.05. In the case of ACGTTC, the binding signal worked out at 1.24. TTCCAG returned a binding signal of 1.07. The sequence GGATCC came in with a binding signal of 1.14. Sequence TTTACA gave a binding signal of 1.2. For TGATCT the value was 1.16. CACTAA: the binding signal turned out to be 1.07. For CTCAAT the value was 1.17. As to ATAGCT, the binding signal was 1.07. Take TTTTTA: the binding signal was found to be 1.3. Consider TCTCTG, for which the binding signal was 1.4.

Sequence CTTTAA gave a binding signal of 1.22. TCGCAA yielded a binding signal of 1.06. For CTGCCG, the binding signal was determined as 1.41. The sequence TCATTC had a binding signal of 1.17. The sequence TCGAAT had a binding signal of 1.01.

ATGTCT registered a binding signal of 1.21. The sequence CGGCTA showed a binding signal of 1.1.

For the sequence AGCTTC, the binding signal is 2.07. For the sequence TTTACT, the binding signal came out at 1.52.

CCGTAA: the binding signal was found to be 1.15. TCCTTT showed a binding signal of 1.74. In turn, GTAAAC came in with a binding signal of 1.23. The sequence TTACCC yielded a binding signal of 1.39. As for ATATGC, the binding signal is 1.11. Consider TACATC, for which the binding signal was found to be 1.74. GGTTTC showed a binding signal of 1.62. For the sequence TATTCG, the binding signal came to 1.13. Regarding CTCACT, the binding signal turned out to be 1.57. The same measure for TGTAAT: 1.19. As to TCGCTT, the binding signal was 1.29. For GATGCC the value was 1.25; for CATCTG, 1.19. In turn, CGACGA came in with a binding signal of 1.1. Turning to AACTCG, the binding signal is 1.34. As to GTTCTA, the binding signal stood at 1.17. For CTTGAC the value was 1.13.

Take GTTCTT: the binding signal was 1.22. For TTAAAC the value was 1.2.
